According to patent publication US9358252B2, “Polysaccharide compositions and methods of use for the treatment and prevention of disorders associated with progenitor cell mobilization” (MOMENTA PHARMACEUTICALS, INC., priority 2007, dated 2016):
At least one compound was matched to its structure with a doubt left.

Key:
[1] = tested on: Luciferase-transfected MB-231-3P cells; experiment: Sutent-induced accelerated tumor regrowth and metastasis, MB-231-3P model; format: in vivo, Fox-Chase SCID mice; conditions: Sutent 60 mg/kg QDx7 po; M402 20 mg/kg BIDx7 sc
[2] = tested on: endothelial progenitor cells (EPC)
[3] = tested on: endothelial progenitor cells (EPC); experiment: Sunitinib induced EPC mobilization in MB-231-3P tumor-bearing mice; format: in vivo, Fox-Chase SCID mice; conditions: sunitinib 60 mg/kg once a day for 7 days po; MONC402 20 mg/kg twice a day for 7 days sc
[4] = sunitinib 90 mg/kg, MONC402 20 mg/kg BID

CCN(CC)CCNC(=O)c1c(C)[nH]c(/C=C2\C(=O)Nc3ccc(F)cc32)c1C [Sunitinib, sunitinib]
tumor progression (whole body bioluminescence) compared to saline control [1]: significantly accelerated tumor progression
EPC in the blood at 2 h ([2]; sunitinib 90 mg/kg p.o. daily, MONC402 20 mg/kg s.c. BID, day 7): significant increase
EPC in the blood at 24 h ([2]; sunitinib 90 mg/kg p.o. daily, MONC402 20 mg/kg s.c. BID, day 8): resolved
percentage of EPC in the bone marrow at 24 h [2, 4]: normalized
production of EPC in the bone marrow at 2 h [2, 4]: significant increase
circulating EPC 24 h after the last sunitinib dose [3]: modest but significant increase
